The text below walks through data of US20210179689A1 (SHATTUCK LABS, published 2021).

These are yes or no findings as the source states them, for the method shown. Some entries that bind do so weakly or less than the wild type. Sequences can lack the tags named with a protein.

This assay addresses T1, recombinant mouse CD40-Fc protein (mouse) (UniProt P27512).
T1 sequence (looked up): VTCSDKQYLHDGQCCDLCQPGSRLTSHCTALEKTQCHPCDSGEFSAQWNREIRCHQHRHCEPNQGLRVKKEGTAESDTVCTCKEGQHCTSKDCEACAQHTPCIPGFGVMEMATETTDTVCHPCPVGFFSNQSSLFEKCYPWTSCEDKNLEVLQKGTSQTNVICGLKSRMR
The assay is described as follows: ELISA: coat mCD40-Fc, detection anti-mCD40L and an HRP conjugate; standard curve.

B1: mCD40L-Fc fusion protein (Fc fusion, murine, UniProt P27548 112-260, looked up)
chain: MQRGDEDPQIAAHVVSEANSNAASVLQWAKKGYYTMKSNLVMLENGKQLTVKREGLYYVYTQVTFCSNREPSSQRPFIVGLWLKPSSGSERILLKAANTHSSSQLCEQQSVHLGGVFELQAGASVFVNVTEASQVIHRVGFSSFGLLKL
notes: also called recombinant mCD40L-Fc protein; not shown: Fc part
With B1, the binding entry is given as “binds”.
